The text below walks through data of the supplement of paper PMC8256030.

Each structure is given as a SMILES string. Values joined by “and” are separate entries in the source; they are usually repeats but may differ in a detail not shown here. Equal entries are not always repeated. Some of the results follow. This data set is noisy: repeats of one test often differ as much as different tests do.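 HEK293T cells were given each compound shortly before transfection with a reporter in which red mCherry is followed by the SARS-CoV-2 frameshift element and then GFP in the −1 frame, so GFP appears only after frameshifting.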

The subject of assay [1] is SARS-CoV-2 -1 PRF reporter mCherry-FSE-GFP(-1). The assay can be described thus: mCherry (red) intensity as percent of control; higher = higher upstream reporter expression. The following applies: 10 µM; 24 h; HEK293T.
Assay [2] has the same test system. The assay is described as follows: percent effect, decrease of GFP/mCherry ratio (-1 PRF reporter) relative to controls; higher = stronger frameshift inhibition. The following applies: 10 µM; 24 h; HEK293T.

In assay [1], `N=C(N)N/N=C/c1c(Cl)cccc1Cl` [Guanabenz] showed a mCherry of 76.3%. Moreover, in assay [2], the percent effect was -1.67%.

With `CC(COc1ccccc1Cc1ccccc1)N1CCCCC1` (stereo unspecified) [benproperine], the mCherry in assay [1] was determined as 105%. Also, the percent effect in assay [2] was -0.315%.

Take `C[S+](CC[C@H](N)C(=O)[O-])C[C@H]1O[C@@H](n2cnc3c(N)ncnc32)[C@H](O)[C@@H]1O` (stereo partly specified) [S-Adenosylmethionine]: the mCherry in assay [1] was 85.4%. The percent effect in assay [2] was -0.171%.

In assay [1], `CCn1cc(C(=O)O)c(=O)c2cc(F)c(N3CCN(C)CC3)cc21` displayed a mCherry of 93%. The percent effect in assay [2] is -2.65%.

`CCCCCCCCCCOc1cc2c(=O)c(C(=O)OCC)c[nH]c2cc1OCC` yielded a mCherry in assay [1] of 149%. The percent effect in assay [2] amounted to 0.094%.

In the case of `CN(c1nccc(=O)[nH]1)C1CCN(c2nc3ccccc3n2Cc2ccc(F)cc2)CC1` [mizolastine], the mCherry in assay [1] was 87.2%. Besides, the percent effect in assay [2] is 1.67%.

`CCCCCCCCCCC[C@@H](C[C@@H]1OC(=O)[C@H]1CCCCCC)OC(=O)[C@H](CC(C)C)NC=O` [orlistat] came in with a mCherry in assay [1] of 115%. Also, the percent effect in assay [2] was -1.5%.

In assay [1], `O=C(CCCN1CCC(C(=O)c2ccc(F)cc2)CC1)c1ccc(F)cc1` [lenperone] had a mCherry of 57.7%. Also, in assay [2], the percent effect was -1.09%.

For the molecule `CC(=O)Nc1ccc(OC(=O)c2ccccc2OC(C)=O)cc1` [benorilate], in assay [1], the mCherry stood at 98.9%. Further, the percent effect in assay [2] was determined as 0.0267%.

For the molecule `CC(=O)O[C@]1(C(C)=O)CC[C@H]2[C@@H]3C=C(C)C4=CC(=O)CC[C@]4(C)[C@H]3CC[C@@]21C`, the mCherry in assay [1] was 118%. Besides, in assay [2], the percent effect is 0.304%.

Consider `Nc1nc(NC2CC2)c2ncn([C@H]3C=C[C@@H](CO)C3)c2n1` [abacavir], for which the mCherry in assay [1] was 82% and 100%. Further, in assay [2], the percent effect is -0.365% and -0.78%.

Take `NC(=O)NC(=O)Cc1ccccc1` [phenacemide]: in assay [1], the mCherry came out at 79.6%. Moreover, the percent effect in assay [2] was -0.352%.

`O=C(NCCNCC(O)COc1ccc(O)cc1)N1CCOCC1` (stereo unspecified) [Xamoterol hemifumarate]: the mCherry in assay [1] was 80.9%. Also, the percent effect in assay [2] is -0.125%.

`O=C(O)CCc1nc(-c2ccccc2)c(-c2ccccc2)o1` [oxaprozin] returned a mCherry in assay [1] of 109%. The percent effect in assay [2] was -2.57%.

In assay [1], `CCOC(=O)/C=C/[C@H](C[C@@H]1CCNC1=O)NC(=O)[C@@H](CC(=O)[C@@H](NC(=O)c1cc(C)on1)C(C)C)Cc1ccc(F)cc1` [rupintrivir] registered a mCherry of 89.9%. The percent effect in assay [2] was -5.36%.

In turn, `N=C(N)n1cccn1` [praxadine] showed a mCherry in assay [1] of 126%. Further, the percent effect in assay [2] was 6.98%.

`CN1C(C)(C)CCCC1(C)C` [pempidine]: the mCherry in assay [1] turned out to be 97.2%. In addition, the percent effect in assay [2] is -0.795%.

As to `CN(C)CCc1c[nH]c2ccc(Cn3cncn3)cc12` [rizatriptan], the mCherry in assay [1] is 110%. The percent effect in assay [2] was found to be 3.96%.

As for `NCCCC(O)(P(=O)(O)O)P(=O)(O)O`, in assay [1], the mCherry worked out at 80.9%. The percent effect in assay [2] is -2.71%.

On to `CCC(=O)OCC(=O)[C@@]1(OC(=O)CC)[C@H](C)C[C@H]2[C@H]3[C@H]([C@@H](O)C[C@@]21C)[C@@]1(C)C=CC(=O)C=C1C[C@H]3Cl`, for which the mCherry in assay [1] is 89.4%. Moreover, the percent effect in assay [2] is -2.84%.

In assay [1], `COC(=O)C1=C(C)NC(C)=C(C(=O)OC(C)C)C1c1cccc2nonc12` (stereo unspecified) [isradipine] came in with a mCherry of 88.8%. Further, the percent effect in assay [2] is 0.964%.

With `CCOC(=O)[C@H](CCc1ccccc1)N[C@H]1CCc2ccccc2N(CC(=O)O)C1=O`, in assay [1], the mCherry turned out to be 110%. Also, in assay [2], the percent effect was -9.26%.

For `NCCc1ccc(O)c(O)c1` [dopamine], the mCherry in assay [1] is 130%. In addition, the percent effect in assay [2] is -0.599%.

In assay [1], `CCCCc1nc(Cl)c(CO)n1Cc1ccc(-c2ccccc2-c2nnn[nH]2)cc1` [Losartan] registered a mCherry of 88%. Besides, the percent effect in assay [2] is -3.57%.

For the molecule `COc1ccnc(C[S+]([O-])c2nc3cc(-n4cccc4)ccc3[nH]2)c1C` (stereo unspecified) [ilaprazole], the mCherry in assay [1] was found to be 106%. Moreover, the percent effect in assay [2] is -3.08%.

In turn, `C=C(NC(=O)C(=C)NC(=O)c1csc(C2=NC3c4csc(n4)C4NC(=O)c5csc(n5)C(C(C)(O)C(C)O)NC(=O)C5CSC(=N5)/C(=C\C)NC(=O)C(C(C)O)NC(=O)c5csc(n5)C3(CC2)NC(=O)C(C)NC(=O)C(=C)NC(=O)C(C)NC(=O)C(C(C)CC)NC2C=Cc3c(C(C)O)cc(nc3C2O)C(=O)OC4C)n1)C(N)=O` (stereo unspecified) came in with a mCherry in assay [1] of 102%. Further, in assay [2], the percent effect was -4.07%.

As to `O=C1CC(c2cccc(Br)c2)C(=O)N1` (stereo unspecified) [brosuximide], the mCherry in assay [1] is 103%. In addition, the percent effect in assay [2] is -4.98%.

The molecule `CN1[C@@H]2CC[C@H]1C[C@@H](OC(c1ccccc1)c1ccccc1)C2` [benzatropine] gave a mCherry in assay [1] of 103%. Besides, in assay [2], the percent effect was -0.0498%.

Take `Cc1ccc(S(=O)(=O)NC(=O)NN2CCCCCC2)cc1` [tolazamide]: the mCherry in assay [1] was 84% and 106%. Besides, the percent effect in assay [2] was 2.45% and -11.4%.

The molecule `CN1C(=O)OC(C)(C)C1=O` [trimethadione] registered a mCherry in assay [1] of 103%. The percent effect in assay [2] amounted to 0.972%.

In the case of `OCCOCCN1CCN(C(c2ccccc2)c2ccccc2)CC1` [decloxizine], the mCherry in assay [1] was 126%. Besides, in assay [2], the percent effect was -4.93%.

In assay [1], `Cc1onc(-c2c(F)cccc2Cl)c1C(=O)N[C@@H]1C(=O)N2[C@@H]1SC(C)(C)[C@@H]2C(=O)O` [Floxacillin] returned a mCherry of 108%. In assay [2], the percent effect is -3.53%.

Regarding `CN(CCOc1ccc(NS(C)(=O)=O)cc1)CCc1ccc(NS(C)(=O)=O)cc1` [dofetilide], in assay [1], the mCherry came out at 95.4%. For the same molecule, the percent effect in assay [2] is 1.48%.
